Test results: patent US11737463B2 (priority 2017, dated 2023)
Some entries share one result that the patent states for a list of compounds.

What was measured:
Format in all cases: cell-based
Botytis Cinerea = assay: Activity against the grey mold Botrytis cinerea in the microtiterplate test; conditions: 31 ppm active substance; DOB medium; 18° C.; absorption at 405 nm 9 days after inoculation; relative to compound-free control (100%)
Pyricularia oryzae = conditions: 31 ppm active substance; DOB medium; 18° C.; absorption at 405 nm 9 days after inoculation; relative to compound-free control (100%)
Fusarium culmorum = assay: Activity against Fusarium culmorum in the microtiterplate test; conditions: 31 ppm active substance; aqueous biomalt or yeast-bactopeptone-sodiumacetate solution; 18° C.; absorption at 405 nm 7 days after inoculation; relative to compound-free control (100%)

## Cc1ncc(Oc2cccc(F)c2C(C)(C)OCc2ccccc2)nc1C [Example I-3, 5-[2-(1-benzyloxy-1-methyl-ethyl)-3-fluoro-phenoxy]-2,3-dimethyl-pyrazine]
Botytis Cinerea
  growth of the pathogen: at most 6%
Pyricularia oryzae
  growth of the pathogen: at most 13%
Fusarium culmorum
  growth of the pathogen: at most 17%
